The assay addresses SMAD3 (mouse (endogenous in RAW264.7)) (UniProt Q8BUN5). The assay is described as follows: co-IP; 500 μg of cytosolic or nuclear proteins of RAW264.7 macrophages (TGF-β1 or PBS treatment) incubated overnight at 4°C with anti-SMAD3 or a homologous IgG, Protein A/G agarose beads 2 hours at 4°C; immunoblot with anti-SMAD3 or anti-STAT3. Background: In western blotting, separated proteins are transferred to a membrane and probed.

The chains behind the UniProt entries cited, without tags or fusion partners.
UniProt Q8BUN5: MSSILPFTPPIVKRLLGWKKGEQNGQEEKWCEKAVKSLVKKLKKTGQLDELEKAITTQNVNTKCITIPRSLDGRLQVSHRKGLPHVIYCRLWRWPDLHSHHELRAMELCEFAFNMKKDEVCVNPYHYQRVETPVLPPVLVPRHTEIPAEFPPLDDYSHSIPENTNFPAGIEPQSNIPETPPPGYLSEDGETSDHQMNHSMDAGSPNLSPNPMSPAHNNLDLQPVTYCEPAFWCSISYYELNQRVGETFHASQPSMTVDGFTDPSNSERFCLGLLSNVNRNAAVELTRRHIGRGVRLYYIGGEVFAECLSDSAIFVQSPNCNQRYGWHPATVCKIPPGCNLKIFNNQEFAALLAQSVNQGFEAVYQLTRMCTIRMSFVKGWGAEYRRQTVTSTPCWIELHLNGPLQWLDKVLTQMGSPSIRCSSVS
UniProt P42227: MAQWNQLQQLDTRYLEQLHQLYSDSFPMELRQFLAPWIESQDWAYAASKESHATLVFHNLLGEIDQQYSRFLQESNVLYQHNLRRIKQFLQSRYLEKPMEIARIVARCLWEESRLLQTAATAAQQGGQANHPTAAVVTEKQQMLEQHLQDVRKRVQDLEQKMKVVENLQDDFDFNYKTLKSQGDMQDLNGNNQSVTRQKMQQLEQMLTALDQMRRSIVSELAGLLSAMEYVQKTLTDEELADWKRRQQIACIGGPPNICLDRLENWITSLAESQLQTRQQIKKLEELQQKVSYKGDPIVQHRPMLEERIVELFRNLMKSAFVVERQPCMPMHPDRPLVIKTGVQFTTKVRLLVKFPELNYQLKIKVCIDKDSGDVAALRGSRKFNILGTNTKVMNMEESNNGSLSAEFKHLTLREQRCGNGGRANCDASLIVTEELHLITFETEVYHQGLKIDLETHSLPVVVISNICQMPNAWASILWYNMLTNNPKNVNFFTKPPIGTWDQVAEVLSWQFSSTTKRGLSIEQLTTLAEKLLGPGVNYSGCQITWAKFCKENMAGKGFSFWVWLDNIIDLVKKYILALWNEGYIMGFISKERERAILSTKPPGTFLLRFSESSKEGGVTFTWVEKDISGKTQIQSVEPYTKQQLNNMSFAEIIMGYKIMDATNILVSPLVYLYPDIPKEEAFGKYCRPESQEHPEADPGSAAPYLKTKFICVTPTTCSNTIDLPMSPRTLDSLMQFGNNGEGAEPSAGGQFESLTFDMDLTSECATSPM

No constants are given. Whether binding was seen depends on the method and setting. Binding seen in cells or lysates may run through a third protein. Some results given as binding are weak or reduced against the parent protein; the word gives no strength.

Consider STAT3 (from UniProt P42227 1-770), for which the binding result is “binds”.

The record behind these values is paper PMC11128204.
